These are yes or no findings as the source states them, for the method shown. Some binding calls cover weakened binding; strength is not graded here.

Amino acid sequences for entries named in this document (tags omitted).
UniProt P10824: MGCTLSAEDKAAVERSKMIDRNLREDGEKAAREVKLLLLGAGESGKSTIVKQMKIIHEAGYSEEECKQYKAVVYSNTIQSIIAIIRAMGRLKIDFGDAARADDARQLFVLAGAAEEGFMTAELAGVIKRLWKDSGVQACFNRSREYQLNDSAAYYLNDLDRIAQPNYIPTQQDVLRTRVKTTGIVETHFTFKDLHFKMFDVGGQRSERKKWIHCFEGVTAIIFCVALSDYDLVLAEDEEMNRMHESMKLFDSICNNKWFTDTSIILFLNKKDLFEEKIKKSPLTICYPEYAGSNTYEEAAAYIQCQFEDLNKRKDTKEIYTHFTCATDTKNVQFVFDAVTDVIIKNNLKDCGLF

This assay has as its target Gαi1 (as used for cross-linking, immunisation, nanobody screening and the unpublished Gαi:Nb9156 crystal structure) (rat) (UniProt P10824). The experiment in a line: cross-linking; 20 μM Ric-8A:Gαi1 complex in 20 mM PBS pH 7.4, 1 mM DTT, with K100 and BS3, room temperature 30 min; SDS-PAGE and Western blot; both purified. A general note: In western blotting, separated proteins are transferred to a membrane and probed.

B1: Ric-8A (as used for cross-linking, immunisation and nanobody screening) (protein, UniProt Q80ZG1 1-530)
chain: MEPRAVADALETGEEDAVTEALRSFNREHSQSFTFDDAQQEDRKRLAKLLVSVLEQGLSPKHRVTWLQTIRILSRDRSCLDSFASRQSLHALACYADIAISEEPIPQPPDMDVLLESLKCLCNLVLSSPTAQMLAAEARLVVRLAERVGLYRKRSYPHEVQFFDLRLLFLLTALRTDVRQQLFQELHGVRLLTDALELTLGVAPKENPLVILPAQETERAMEILKVLFNITYDSVKREVDEEDAALYRYLGTLLRHCVMADAAGDRTEEFHGHTVNLLGNLPLKCLDVLLALELHEGSLEFMGVNMDVINALLAFLEKRLHQTHRLKECVAPVLSVLTECARMHRPARKFLKAQVLPPLRDVRTRPEVGDLLRNKLVRLMTHLDTDVKRVAAEFLFVLCSESVPRFIKYTGYGNAAGLLAARGLMAGGRPEGQYSEDEDTDTEEYREAKASINPVTGRVEEKPPNPMEGMTEEQKEHEAMKLVNMFDKLSRHRLIQPMGMSPRGHLTSLQDAMCETMEGQLSSDPDSDPD
For the molecule B1, the binding entry is given as “binds”.

(Values after PMC7044438.)
